No constants are given. Whether binding was seen depends on the method and setting. In cells and extracts the contact can be indirect. Some results given as binding are weak or reduced against the parent protein; the word gives no strength. For some assays here: Tags and fused reporters may be left off the sequences shown.

By UniProt entry, the sequences of proteins in these tests, tags left out.
UniProt Q9FY89: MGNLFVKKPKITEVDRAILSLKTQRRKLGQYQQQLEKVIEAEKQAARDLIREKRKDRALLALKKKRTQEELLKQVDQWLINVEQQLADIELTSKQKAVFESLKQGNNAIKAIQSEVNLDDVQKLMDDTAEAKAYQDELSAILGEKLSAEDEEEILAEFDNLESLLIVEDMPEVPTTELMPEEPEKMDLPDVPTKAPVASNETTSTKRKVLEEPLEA

One assay concerns the target T1, VPS25-YFPC (UniProt Q8VZC9).
T1 sequence: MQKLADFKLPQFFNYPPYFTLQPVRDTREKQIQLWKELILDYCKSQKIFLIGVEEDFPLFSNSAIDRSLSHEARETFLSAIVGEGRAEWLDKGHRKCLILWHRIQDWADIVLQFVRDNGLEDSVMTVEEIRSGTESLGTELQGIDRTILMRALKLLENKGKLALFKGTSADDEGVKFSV
Kind of assay: split reporter; BiFC with YFPN and YFPC fusions under the 35S promoter in transiently transformed N. benthamiana leaf epidermis cells, 72 h post-transfection; DCP2-mCHERRY or free RFP coexpressed.

For a further assay, the target named is T2, YFPN-GL1 (UniProt P27900).
T2 sequence: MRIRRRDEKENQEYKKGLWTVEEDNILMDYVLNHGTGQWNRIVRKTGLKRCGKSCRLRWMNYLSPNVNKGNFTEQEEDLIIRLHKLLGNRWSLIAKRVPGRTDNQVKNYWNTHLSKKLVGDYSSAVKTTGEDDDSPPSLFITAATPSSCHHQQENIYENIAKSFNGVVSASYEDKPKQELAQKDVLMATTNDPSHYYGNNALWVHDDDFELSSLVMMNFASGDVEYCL
Described as above.

On to “VPS20.2-YFPN (from UniProt Q9FY89 1-216)”, for which, in the assay with VPS25-YFPC, the binding result is recorded as “binds”.

B1: YFPC-AtMYC1 (protein, UniProt Q8W2F1 1-526)
chain: MSLTMADGVEAAAGRSKRQNSLLRKQLALAVRSVQWSYAIFWSSSLTQPGVLEWGEGCYNGDMKKRKKSYESHYKYGLQKSKELRKLYLSMLEGDSGTTVSTTHDNLNDDDDNCHSTSMMLSPDDLSDEEWYYLVSMSYVFSPSQCLPGRASATGETIWLCNAQYAENKLFSRSLLARSASIQTVVCFPYLGGVIELGVTELISEDHNLLRNIKSCLMEISAHQDNDDEKKMEIKISEEKHQLPLGISDEDLHYKRTISTVLNYSADRSGKNDKNIRHRQPNIVTSEPGSSFLRWKQCEQQVSGFVQKKKSQNVLRKILHDVPLMHTKRMFPSQNSGLNQDDPSDRRKENEKFSVLRTMVPTVNEVDKESILNNTIKYLQELEARVEELESCMGSVNFVERQRKTTENLNDSVLIEETSGNYDDSTKIDDNSGETEQVTVFRDKTHLRVKLKETEVVIEVRCSYRDYIVADIMETLSNLHMDAFSVRSHTLNKFLTLNLKAKFRGAAVASVGMIKRELRRVIGDLF
Turning to B1, the binding result in the assay with YFPN-GL1 is reported as “binds”.
